Results deposited as PubChem BioAssay AID1259314 (Drosophila RNAi Screening Center, 2017).
The deposit covers about 3,100 reagents; this is a random part of them. 289 of all reagents (9.3%) were called active. 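Active includes both higher and lower ATP than plate average; check the z-score sign for direction.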 Unmarked entries are inactive. The numbers tell different reagents against one gene apart. Not given: the amount of reagent.

Aim: 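Genes whose knock-down alters cell survival under toxic manganese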 (primary screen)
Cell system: Drosophila S2R+ cells
Reagent: long dsRNA against Drosophila genes
Time to read-out: 5 days (4 days knock-down, then 1 day metal exposure)
Challenge: manganese chloride added to 15 mM for 24 hours
Read-out: 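Luciferase ATP signal used as a proxy for viable cell number, reported as one averaged z-score per dsRNA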
Reading the numbers: mean ATP z-score: higher = more ATP than the plate average, more viable cells under manganese
Call rule: 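Called active when the mean ATP z-score is above 1.5 or below -1.5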
Meaning of the calls: active = strong ATP change, up or down; inactive = no strong ATP change

CG15406 #1
- mean ATP z-score: -0.927

CG15406 #2
- mean ATP z-score: -0.454

CG10182
- mean ATP z-score: -0.463

osy #1
- mean ATP z-score: -0.0607

osy #2
- mean ATP z-score: -0.386

osy #3
- mean ATP z-score: 0.963

Trc8 #1
- mean ATP z-score: 0.222

Trc8 #2
- mean ATP z-score: 0.644

fz4
- mean ATP z-score: -0.545

Records listed so far whose target name starts with O or o (3):
osy #1
- mean ATP z-score: -0.0607

osy #2
- mean ATP z-score: -0.386

osy #3
- mean ATP z-score: 0.963

Continued:
Or59a #1
- mean ATP z-score: 0.0471

Or59a #2
- mean ATP z-score: 0.28

fz #1
- mean ATP z-score: 0.249

fz #2
- mean ATP z-score: -0.0837

Shaw #1
- mean ATP z-score: 2.86 (active)

Shaw #2
- mean ATP z-score: 0.453

Shaw #3
- mean ATP z-score: 0.96

na #1
- mean ATP z-score: 0.191

na #2
- mean ATP z-score: -0.0534

Or74a
- mean ATP z-score: -1.04
